This assay addresses T1, entire extracellular domain of human αKlotho (residues Met1 to Ser981) (human) (UniProt Q9UEF7).
T1 sequence: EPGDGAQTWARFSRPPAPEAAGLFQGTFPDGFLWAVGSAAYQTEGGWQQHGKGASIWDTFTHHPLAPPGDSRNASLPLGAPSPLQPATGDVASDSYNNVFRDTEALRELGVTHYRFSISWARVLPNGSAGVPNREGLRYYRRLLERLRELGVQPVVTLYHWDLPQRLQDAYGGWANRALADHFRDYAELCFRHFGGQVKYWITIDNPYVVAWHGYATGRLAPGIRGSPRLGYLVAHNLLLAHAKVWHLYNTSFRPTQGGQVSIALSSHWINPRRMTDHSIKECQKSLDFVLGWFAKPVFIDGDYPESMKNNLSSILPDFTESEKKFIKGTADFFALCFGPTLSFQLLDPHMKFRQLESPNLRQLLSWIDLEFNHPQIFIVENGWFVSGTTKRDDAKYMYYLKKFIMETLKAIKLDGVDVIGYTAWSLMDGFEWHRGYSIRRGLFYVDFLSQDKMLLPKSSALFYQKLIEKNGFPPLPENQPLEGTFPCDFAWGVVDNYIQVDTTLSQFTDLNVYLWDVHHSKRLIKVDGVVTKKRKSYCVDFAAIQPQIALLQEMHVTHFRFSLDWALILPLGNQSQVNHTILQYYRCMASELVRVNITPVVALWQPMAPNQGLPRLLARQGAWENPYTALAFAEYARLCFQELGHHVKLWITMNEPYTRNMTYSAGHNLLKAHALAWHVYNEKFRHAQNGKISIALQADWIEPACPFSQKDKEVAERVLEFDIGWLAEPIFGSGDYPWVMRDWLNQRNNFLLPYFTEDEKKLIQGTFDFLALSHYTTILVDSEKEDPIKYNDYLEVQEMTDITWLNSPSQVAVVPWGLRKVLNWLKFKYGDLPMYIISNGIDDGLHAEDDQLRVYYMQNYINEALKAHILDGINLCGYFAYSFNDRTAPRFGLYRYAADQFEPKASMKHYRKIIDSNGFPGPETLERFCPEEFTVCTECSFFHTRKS
Kind of assay: cryo-EM structure; FGF23, one FGFR ectodomain, αKlotho^ecto and heparin dodecasaccharide (HO12) mixed 1:1:1:1; complex isolated on Superdex 200 in 25 mM HEPES pH 7.5, 100 mM NaCl; peak fractions vitrified; both purified.

No constants are given. Whether binding was seen depends on the method and setting. A result given as binding can be weak or reduced; the word gives no strength.

As to “extracellular ligand-binding region (D2–D3 region) of FGFR3c (residues Asp142 to Arg365) (human) (domain or fragment)”, the binding entry is “binds”.

“extracellular ligand-binding region (D2–D3 region) of FGFR4 (residues Asp142 to Arg365) (human) (domain or fragment)”: the binding entry is reported as “binds”.

Source of the values: paper PMC10284700.
